# Reference: publication PMC12346198 (Cancers, 2025)
# What was measured:
# Assay type in all cases: cell-based
# THLE-2 = assay: CCK-8 cytotoxicity assay, THLE-2; conditions: Homo sapiens, 72 h treatment
# Description: (§1) The cytotoxicity of compounds was determined by the CCK-8 assay (Cell Counting Kit-8, CK04, Dojindo Molecular Technologies, Kumamoto, Japan). Cell lines were plated at 10,000 cells/well in 96-well plates and incubated overnight to allow for adherence (5% CO2, 37 °C). […] Cells were placed back in the incubator for 72 h treatment. CCK-8 reagent was added, and plates were further incubated 1–4 h as directed by the supplier’s instructions. Optical density was measured using a Biotek Synergy H1 plate reader at 450 nm. Primary hepatocytes were plated at 30,000 cells or 50,000 cells/well and maintained according to the technical information bulletin provided by the supplier. Upon treatment, maintenance media were supplemented with 10% FBS and fresh test compound for all subsequent media changes, as directed.
# SNU423 = assay: CCK-8 cytotoxicity assay, SNU423; conditions: Homo sapiens, SNU-423, 72 h treatment
# Description: as §1
# SNU475 = assay: CCK-8 cytotoxicity assay, SNU475; conditions: Homo sapiens, SNU-475, 72 h, 72 h treatment
# Description: as §1
# HepG2 = assay: CCK-8 cytotoxicity assay, HepG2; conditions: Homo sapiens, HepG2, 72 h, 72 h treatment
# Description: as §1
structure (smiles),measurement,setting,value
"CNC(=O)c1ccc(N2C(=S)N(c3ccc(C#N)c(C(F)(F)F)c3)C(=O)C2(C)C)cc1F [Enzalutamide, enzalutamide]",IC50,THLE-2,> 30 µM
same,IC50,SNU423,16.6 µM
same,IC50,SNU475,14.9 µM
same,IC50,HepG2,> 30 µM
